Data source: PubChem BioAssay AID743454 (Peter MacCallum Cancer Centre, 2014)
The deposit covers about 18,000 reagents; this is a random part of them. In the full data, 450 (2.5%) were called active. 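Single biological run; no consistent viability z cut-off exists, so the class columns, not z-scores, define the calls.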

Aim: 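Search for knock-downs that restore vorinostat killing in resistant colon cancer cells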 (primary screen)
Cell system: human HCT116-VR colon cancer cells, selected for vorinostat resistance
Knock-down reagent: siRNA pool against human genes, 40 nM siRNA pool
Duration: vorinostat for 24 h, read-out about 72 h after transfection
Challenge: vorinostat at 2.5 µM final
Measurement: 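Two measures, CellTiter-Fluor viability and luminescent caspase 3/7 activity, each as fold change against same-plate mock wells, mean of duplicates, then screen-wide robust z-score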
Scale: viability robust z-score: higher = more viable cells than screen typical; caspase robust z-score: higher = more caspase 3/7 activity than screen typical
Rule for the call: 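Hits are knock-downs in viability class RV1/RV2 or caspase class CA1/CA2, excluding ones that killed cells in the no-drug cell-count arm; hits then retested with single siRNAs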

target gene | viability hit class | caspase hit class | viability robust z-score | caspase robust z-score | Call
YJEFN3 (YjeF N-terminal domain containing 3) | no change | no change | 0.16 | 2.73 | inactive
TTC9B (tetratricopeptide repeat domain 9B) | no change | no change | 0.18 | 3.31 | inactive
SVOPL (SVOP like) | no change | no change | -2.33 | -1.21 | inactive
CEMP1 (cementum protein 1) | no change | no change | 0.5 | 1.45 | inactive
NPTX1 (neuronal pentraxin 1) | no change | no change | -1.27 | 0.68 | inactive
CEP89 (centrosomal protein 89) | no change | no change | -0.14 | -0.55 | inactive
VRTN (vertebrae development associated) | no change | no change | -1.66 | 2.86 | inactive
MGST2 (microsomal glutathione S-transferase 2) | no change | no change | -0.34 | 2.04 | inactive
PPP1R35 (protein phosphatase 1 regulatory subunit 35) | no change | no change | -0.1 | 1.04 | inactive
CCDC69 (coiled-coil domain containing 69) | no change | no change | -0.6 | 0.06 | inactive
TRIM51G (tripartite motif-containing 51G) | no change | CA1 (caspase activation) | 0.7 | -0.3 | active
PARVG (parvin gamma) | no change | no change | -1.21 | -0.61 | inactive
FBXL16 (F-box and leucine rich repeat protein 16) | no change | no change | -0.82 | 1.45 | inactive
COPS8 (COP9 signalosome subunit 8) | no change | no change | 0.15 | 0.91 | inactive
SAMD1 (sterile alpha motif domain containing 1) | no change | no change | 0.35 | -0.52 | inactive
BICD2 (BICD cargo adaptor 2) | no change | no change | 0.1 | 2.66 | inactive
KIAA0319L (KIAA0319 like) | no change | no change | -0.2 | -0.58 | inactive
TRPV6 | no change | no change | -0.04 | 0.52 | inactive
PLCXD2 | no change | no change | -0.01 | -0.12 | inactive
TSN (translin) | no change | no change | 1.05 | -0.54 | inactive
BRINP3 (BMP/retinoic acid inducible neural specific 3) | no change | no change | 0.1 | 1.03 | inactive
MGAT1 | no change | no change | 0.27 | 3.83 | inactive
SALL3 (spalt like transcription factor 3) | no change | CA1 (caspase activation) | -1.06 | 5.92 | active

A portion from the list above:
target gene | viability hit class | caspase hit class | viability robust z-score | caspase robust z-score | Call
SAMD1 (sterile alpha motif domain containing 1) | no change | no change | 0.35 | -0.52 | inactive
BICD2 (BICD cargo adaptor 2) | no change | no change | 0.1 | 2.66 | inactive
KIAA0319L (KIAA0319 like) | no change | no change | -0.2 | -0.58 | inactive
TRPV6 | no change | no change | -0.04 | 0.52 | inactive
PLCXD2 | no change | no change | -0.01 | -0.12 | inactive

More entries follow:
target gene | viability hit class | caspase hit class | viability robust z-score | caspase robust z-score | Call
UBL5 (ubiquitin like 5) | no change | no change | -2.9 | 0.1 | inactive
FGA (fibrinogen alpha chain) | no change | no change | -2.01 | -0.72 | inactive
DYNC1H1 (dynein cytoplasmic 1 heavy chain 1) | no change | no change | 0 | -0.32 | inactive
SLC9C1 | no change | no change | 0.64 | -0.46 | inactive
TAS2R43 (taste 2 receptor member 43) | no change | no change | -1.56 | 1.78 | inactive
SNHG32 (small nucleolar RNA host gene 32) | no change | no change | -0.61 | 0.96 | inactive
ARHGEF26 (Rho guanine nucleotide exchange factor 26) | no change | no change | 1.4 | 1.31 | inactive
TF (transferrin) | no change | no change | -0.84 | 2.42 | inactive
RIMS4 (regulating synaptic membrane exocytosis 4) | no change | no change | -0.88 | 1.74 | inactive
CHST15 (carbohydrate sulfotransferase 15) | no change | no change | 0.63 | 0.72 | inactive
ENC1 (ectodermal-neural cortex 1) | no change | no change | -0.19 | 0.3 | inactive
ROPN1L (rhophilin associated tail protein 1 like) | no change | no change | 1.1 | -1.06 | inactive
TMEM74 (transmembrane protein 74) | no change | no change | -0.29 | -0.48 | inactive
RPP21 (ribonuclease P subunit p21) | no change | no change | -0.04 | -0.3 | inactive
HK2 (hexokinase 2) | no change | no change | -2.42 | 1.22 | inactive
NKX2-8 (NK2 homeobox 8) | no change | no change | -0.18 | 0.26 | inactive
KRT222 (keratin 222) | no change | no change | 0.65 | 0.57 | inactive
ATCAY (ATCAY kinesin light chain interacting caytaxin) | no change | no change | 0.72 | 0.26 | inactive
CCDC82 (coiled-coil domain containing 82) | no change | no change | 0.59 | 1.64 | inactive
TM9SF2 (transmembrane 9 superfamily member 2) | no change | no change | 1.37 | -0.26 | inactive
DNAJC22 (DnaJ heat shock protein family (Hsp40) member C22) | no change | no change | -1.16 | 0.79 | inactive
MTG1 (mitochondrial ribosome associated GTPase 1) | no change | no change | 0.23 | 0.12 | inactive
SSX2 (SSX family member 2) | no change | no change | -1.27 | -1.42 | inactive
DHX8 (DEAH-box helicase 8) | no change | no change | -1.99 | -1.19 | inactive
KIFAP3 (kinesin associated protein 3) | no change | no change | -0.09 | 0.64 | inactive
LRP11 (LDL receptor related protein 11) | no change | no change | -1.64 | -0.29 | inactive
U2SURP (U2 snRNP associated SURP domain containing) | no change | no change | -0.7 | -0.44 | inactive
RAE1 (ribonucleic acid export 1) | no change | no change | -3.64 | 1.87 | inactive
FBXL15 (F-box and leucine rich repeat protein 15) | no change | no change | -0.24 | -0.34 | inactive
GARIN6 (golgi associated RAB2 interactor family member 6) | no change | no change | 1.02 | -1.02 | inactive
CC2D1A (coiled-coil and C2 domain containing 1A) | no change | no change | -0.95 | -0.6 | inactive
ADRB3 (adrenoceptor beta 3) | no change | no change | 0.27 | 1.64 | inactive
SNRPE (small nuclear ribonucleoprotein polypeptide E) | RV2 (reduced viability) | no change | -3.27 | 0.04 | active
CARD8 (caspase recruitment domain family member 8) | no change | no change | -0.05 | 0.64 | inactive
